Data published in the supplement of paper PMC10338343.
± gives the standard deviation. The entries are a selection whose mix differs from that of the whole data set. Many entries were measured with a wide error.

The sequences below were run on MIWI (PIWIL1) piRISC loaded with L1MC piRNA (30 nt) (assay: pre-steady-state target cleavage rate (min^-1); MIWI and MILI are mouse PIWI proteins and EfPiwi is from a freshwater sponge; tags in brackets are library labels; higher = faster piRNA-guided slicing of the target). Settings: guide: L1MC piRNA 5'p-UAACUAAAUACUAUGCAAGCUGUAGGUCCU; auxiliary factor: 500 nM mouse GTSF1.
Summary of the method: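 The pre-steady-state cleavage rate came from a burst-and-steady-state fit to pooled data from three Cleave-'n-Seq trials, in which uncleaved targets were sequenced and normalised to depth and to weakly complementary targets. Each reaction held 0.1 nM transcribed, DNA-blocked target RNA library and 1 nM active affinity-purified piRISC carrying one synthetic guide, with or without 500 nM GTSF1 partner protein, in HEPES–potassium acetate buffer at 33 °C for 0–8 or 0–960 min. k3 was capped at 0.0001 min^-1.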

| Sequence | pre-steady-state target cleavage rate |
| --- | --- |
| UCCUGGAUGUCGAACGUAUCUUAUUUAGUUA | 0.00038 ± 0.011 |
| AGGACCUACAGCUUGCAUAGUAUAUUCAAA | 0.419 ± 0.072 |
| UGGCCUACAGCUUGCAUAGUAUUUAGUUA | 1.46 ± 0.076 |
| UCCUGGAUGUCGAACGUAUCUAUUUUAGUUA | 0.000127 ± 0.028 |

Same assay, conditions: guide: L1MC piRNA 5'p-UAACUAAAUACUAUGCAAGCUGUAGGUCCU; auxiliary factor: none (no GTSF1)

| Sequence | pre-steady-state target cleavage rate |
| --- | --- |
| UCCACCUACAGCUUCGUUAGUAUUUUCAAA | 0.000178 ± 0.016 |
| UCCACCUACAGCUUGCAUACGUAUUUAGUUA | 0.00079 ± 0.0098 |
| UCCUGGAACAGCUUCGAUAGUAUUUUCAAA | 0.000697 ± 0.01 |
| UCCACCUACAGCUUGCAUAGUUUUUACAAA | 0.00116 ± 0.006 |
| UCCUGGAUGUCGAACGUAACUAUUUAGAUA | 0.000251 ± 0.027 |
| UCGACCUACAGCUUGCAUAGUAUAAUCAAA | 0.000494 ± 0.009 |
| UCCACCUACAGGAAGCAUAGUAUUUAGAAA | 0.000348 ± 0.0074 |
| AGCUGCUACAGCUUGCAUAGUAUUUACAAA | 0.00178 ± 0.0034 |
| UCGACCUACAGCUUGGAUAGUAUUUACAAA | 0.0022 ± 0.0027 |
| UGGACCUAGUGCUUGCAUAGUAUUUUCAAA | 0.00182 ± 0.0033 |
| UCGACCUACAGCUUGCAUAGUAAAAUCAAA | 0.000289 ± 0.01 |
| UGGACCUAGUCCUUGCAUAGUAUUUAGAAA | 0.00158 ± 0.0024 |
| UCCACCUACAGCUUGCAUUCAAUUUAGUAA | 0.000808 ± 0.0086 |
| AGGACCUAGUCCUUGCAUAGUAUUUUCAAA | 0.00171 ± 0.0028 |
| UCCUGCUACAGCUUGCUAUGUAUUUUCAAA | 0.000164 ± 0.019 |
| AGGACCUACAGCUACCAUAGUAUUUAGUAA | 0.00187 ± 0.0043 |
| UCGACCUACAGCUUGCAUAGUAUUAUCAAA | 0.00159 ± 0.0045 |
| AGGACCUACAGCUUGCAUAGAUAUUAGUAA | 0.000832 ± 0.01 |

| Sequence | pre-steady-state target cleavage rate |
| --- | --- |
| AGGACCUACAGCUACCAUAGUAUUUUCAAA | 0.000488 ± 0.012 |
| UCGACCUACAGCUUGCAUAGUAUAAAGUAA | 0.00301 ± 0.0032 |
| UCCACCUACAGCUUCGUUAGUAUUUAGUUA | 0.000442 ± 0.0057 |
| UCCACCUACUCGUUGCAUAGUAUUUAGAAA | 0.00168 ± 0.0025 |
| AGGACCUACAGCUUGCAUAGUUAUUAGAAA | 0.00156 ± 0.0064 |
| UCCUGGAUGUCGAACGAAACUAUUUAGUUA | 0.000171 ± 0.028 |
| UCGACCUACAGCUUGCAUUCUAUUUACAAA | 0.000742 ± 0.0097 |
| UGGACCUACACGAUGCAUAGUAUUUAGAAA | 0.00128 ± 0.0051 |
| UCCACCUACAGCUUGCAUAGAUUUUACAAA | 0.000276 ± 0.013 |
| UCCACCUACAGCUUGCAUAGUAUUUAUUA | 0.00161 ± 0.0037 |
| UCGACCUACAGCUUGCAUAGUAAAAAGAAA | 0.000517 ± 0.011 |
| ACCUCCUACAGCUUGCAUAGUAUUUACAAA | 0.00297 ± 0.0035 |
| UGGACCUACAGCUUGCAUAGUUUUUUCAAA | 0.00132 ± 0.0059 |
| UCGACCUACAGCUUGCUAGUAUUUAGUUA | 0.00236 ± 0.0035 |
| UCGACCUACAGCUUGCUAAGUAUUUAGUAA | 0.00169 ± 0.0032 |
| UGGACCUACAGCAACCAUAGUAUUUUCAAA | 0.000143 ± 0.015 |
| AGGACCUACAGCUUGCAUUCAAUUUAGAAA | 0.000685 ± 0.009 |
| UCCUGGAUGUCGAACGAUUGUAUUUAGUAA | 0.000134 ± 0.026 |

Fetched one by one from the entries so far:

| Sequence | pre-steady-state target cleavage rate |
| --- | --- |
| UGGACCUACACGAUGCAUAGUAUUUAGAAA | 0.00128 ± 0.0051 |
| UCCACCUACAGCUUGCAUAGUAUUUAUUA | 0.00161 ± 0.0037 |
